Results are given in words; binding and its absence hold for the method and conditions named. Binding seen in cells or lysates may run through a third protein. Some results given as binding are weak or reduced against the parent protein; the word gives no strength. Tags and fused reporters may be left off the sequences shown. Blank lines part the entries; values can stand above or below the molecule they belong to.
Molecular target: T1, FLAG-LIN28B (UniProt Q6ZN17)
T1 sequence: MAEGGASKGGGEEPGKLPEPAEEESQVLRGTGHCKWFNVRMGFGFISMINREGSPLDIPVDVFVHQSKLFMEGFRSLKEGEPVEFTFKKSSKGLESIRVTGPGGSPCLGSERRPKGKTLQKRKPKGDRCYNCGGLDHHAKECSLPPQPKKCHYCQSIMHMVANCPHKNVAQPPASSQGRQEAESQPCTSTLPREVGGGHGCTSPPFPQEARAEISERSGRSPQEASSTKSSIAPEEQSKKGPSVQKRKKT
Assay: co-IP; FLAG-LIN28B transfected into HEK-293T; Pierce RIPA lysate; anti-FLAG M2 agarose beads overnight at 4°C; wash buffer with 200 mM NaCl; Western blot of target proteins

By UniProt entry, the sequences of proteins in these tests, tags left out.
UniProt P09874: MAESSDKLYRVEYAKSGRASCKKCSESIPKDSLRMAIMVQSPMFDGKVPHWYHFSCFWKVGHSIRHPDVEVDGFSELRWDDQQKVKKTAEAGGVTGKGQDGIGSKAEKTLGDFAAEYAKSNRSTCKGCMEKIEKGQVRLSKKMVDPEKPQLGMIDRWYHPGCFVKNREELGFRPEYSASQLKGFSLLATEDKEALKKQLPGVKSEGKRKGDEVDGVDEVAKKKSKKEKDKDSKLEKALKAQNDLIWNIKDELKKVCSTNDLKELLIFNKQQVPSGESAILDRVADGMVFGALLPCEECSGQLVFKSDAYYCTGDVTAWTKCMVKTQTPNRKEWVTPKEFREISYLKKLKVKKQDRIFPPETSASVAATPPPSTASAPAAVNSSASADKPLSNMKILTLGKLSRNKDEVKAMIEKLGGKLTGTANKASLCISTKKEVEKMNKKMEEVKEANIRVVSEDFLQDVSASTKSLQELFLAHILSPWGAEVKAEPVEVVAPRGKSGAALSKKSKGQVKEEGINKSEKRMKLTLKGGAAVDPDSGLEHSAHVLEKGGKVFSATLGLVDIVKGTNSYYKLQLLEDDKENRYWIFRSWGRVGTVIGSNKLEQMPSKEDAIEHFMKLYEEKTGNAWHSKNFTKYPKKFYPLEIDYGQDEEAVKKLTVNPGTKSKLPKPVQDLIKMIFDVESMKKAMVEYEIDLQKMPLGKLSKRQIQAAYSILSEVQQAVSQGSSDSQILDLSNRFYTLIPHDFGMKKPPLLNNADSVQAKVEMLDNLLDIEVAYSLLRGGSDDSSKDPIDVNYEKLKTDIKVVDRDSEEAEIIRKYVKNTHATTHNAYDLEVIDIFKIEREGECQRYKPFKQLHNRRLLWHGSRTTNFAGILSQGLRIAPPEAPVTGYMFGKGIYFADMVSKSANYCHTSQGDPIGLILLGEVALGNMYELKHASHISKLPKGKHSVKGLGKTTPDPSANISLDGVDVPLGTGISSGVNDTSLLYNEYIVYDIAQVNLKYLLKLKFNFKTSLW
UniProt P08238: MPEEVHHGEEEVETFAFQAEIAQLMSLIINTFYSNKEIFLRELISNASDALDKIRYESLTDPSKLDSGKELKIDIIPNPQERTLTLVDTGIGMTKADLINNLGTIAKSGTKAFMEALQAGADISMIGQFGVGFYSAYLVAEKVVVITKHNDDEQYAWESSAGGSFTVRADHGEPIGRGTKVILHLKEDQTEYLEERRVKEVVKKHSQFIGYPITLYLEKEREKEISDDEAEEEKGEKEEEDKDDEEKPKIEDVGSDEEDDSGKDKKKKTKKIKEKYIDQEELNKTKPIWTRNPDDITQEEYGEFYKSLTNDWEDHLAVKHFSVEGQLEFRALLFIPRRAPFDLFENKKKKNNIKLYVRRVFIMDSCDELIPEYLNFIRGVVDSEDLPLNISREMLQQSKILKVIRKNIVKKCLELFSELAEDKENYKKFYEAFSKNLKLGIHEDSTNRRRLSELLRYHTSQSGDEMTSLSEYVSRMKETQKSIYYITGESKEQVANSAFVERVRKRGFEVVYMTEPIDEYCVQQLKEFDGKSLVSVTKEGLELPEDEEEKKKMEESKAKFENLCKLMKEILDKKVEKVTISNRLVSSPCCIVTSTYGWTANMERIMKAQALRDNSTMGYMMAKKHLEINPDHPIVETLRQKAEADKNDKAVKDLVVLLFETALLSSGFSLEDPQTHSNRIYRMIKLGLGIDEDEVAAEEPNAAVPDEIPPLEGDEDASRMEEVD
UniProt P51114: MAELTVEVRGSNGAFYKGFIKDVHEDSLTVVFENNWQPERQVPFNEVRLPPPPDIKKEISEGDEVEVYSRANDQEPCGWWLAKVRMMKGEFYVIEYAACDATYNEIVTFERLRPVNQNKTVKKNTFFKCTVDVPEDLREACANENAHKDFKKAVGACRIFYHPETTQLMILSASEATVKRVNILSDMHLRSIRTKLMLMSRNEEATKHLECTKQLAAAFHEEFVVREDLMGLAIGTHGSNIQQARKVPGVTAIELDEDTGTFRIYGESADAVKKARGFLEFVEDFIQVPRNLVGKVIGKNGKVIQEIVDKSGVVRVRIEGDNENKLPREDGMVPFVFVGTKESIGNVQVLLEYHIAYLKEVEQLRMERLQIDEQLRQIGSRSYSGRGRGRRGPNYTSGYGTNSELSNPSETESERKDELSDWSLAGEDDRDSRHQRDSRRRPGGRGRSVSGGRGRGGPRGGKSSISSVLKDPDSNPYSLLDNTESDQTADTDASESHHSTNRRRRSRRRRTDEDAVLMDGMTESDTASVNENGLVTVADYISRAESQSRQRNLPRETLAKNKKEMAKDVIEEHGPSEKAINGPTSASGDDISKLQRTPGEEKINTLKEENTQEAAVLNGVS

Molecule: PARP1 (from UniProt P09874 1-1014)
- binding: binds

B1: interleukin enhancer-binding factor 3 (protein, UniProt Q12906 1-894)
chain: MRPMRIFVNDDRHVMAKHSSVYPTQEELEAVQNMVSHTERALKAVSDWIDEQEKGSSEQAESDNMDVPPEDDSKEGAGEQKTEHMTRTLRGVMRVGLVAKGLLLKGDLDLELVLLCKEKPTTALLDKVADNLAIQLAAVTEDKYEILQSVDDAAIVIKNTKEPPLSLTIHLTSPVVREEMEKVLAGETLSVNDPPDVLDRQKCLAALASLRHAKWFQARANGLKSCVIVIRVLRDLCTRVPTWGPLRGWPLELLCEKSIGTANRPMGAGEALRRVLECLASGIVMPDGSGIYDPCEKEATDAIGHLDRQQREDITQSAQHALRLAAFGQLHKVLGMDPLPSKMPKKPKNENPVDYTVQIPPSTTYAITPMKRPMEEDGEEKSPSKKKKKIQKKEEKAEPPQAMNALMRLNQLKPGLQYKLVSQTGPVHAPIFTMSVEVDGNSFEASGPSKKTAKLHVAVKVLQDMGLPTGAEGRDSSKGEDSAEETEAKPAVVAPAPVVEAVSTPSAAFPSDATAEQGPILTKHGKNPVMELNEKRRGLKYELISETGGSHDKRFVMEVEVDGQKFQGAGSNKKVAKAYAALAALEKLFPDTPLALDANKKKRAPVPVRGGPKFAAKPHNPGFGMGGPMHNEVPPPPNLRGRGRGGSIRGRGRGRGFGGANHGGYMNAGAGYGSYGYGGNSATAGYSQFYSNGGHSGNASGGGGGGGGGSSGYGSYYQGDNYNSPVPPKHAGKKQPHGGQQKPSYGSGYQSHQGQQQSYNQSPYSNYGPPQGKQKGYNHGQGSYSYSNSYNSPGGGGGSDYNYESKFNYSGSGGRSGGNSYGSGGASYNPGSHGGYGGGSGGGSSYQGKQGGYSQSNYNSPGSGQNYSGPPSSYQSSQGGYGRNADHSMNYQYR
- binding: binds

B2: HNRNPM (protein, UniProt P52272 1-730)
chain: MAAGVEAAAEVAATEIKMEEESGAPGVPSGNGAPGPKGEGERPAQNEKRKEKNIKRGGNRFEPYANPTKRYRAFITNIPFDVKWQSLKDLVKEKVGEVTYVELLMDAEGKSRGCAVVEFKMEESMKKAAEVLNKHSLSGRPLKVKEDPDGEHARRAMQKVMATTGGMGMGPGGPGMITIPPSILNNPNIPNEIIHALQAGRLGSTVFVANLDYKVGWKKLKEVFSMAGVVVRADILEDKDGKSRGIGTVTFEQSIEAVQAISMFNGQLLFDRPMHVKMDERALPKGDFFPPERPQQLPHGLGGIGMGLGPGGQPIDANHLNKGIGMGNIGPAGMGMEGIGFGINKMGGMEGPFGGGMENMGRFGSGMNMGRINEILSNALKRGEIIAKQGGGGGGGSVPGIERMGPGIDRLGGAGMERMGAGLGHGMDRVGSEIERMGLVMDRMGSVERMGSGIERMGPLGLDHMASSIERMGQTMERIGSGVERMGAGMGFGLERMAAPIDRVGQTIERMGSGVERMGPAIERMGLSMERMVPAGMGAGLERMGPVMDRMATGLERMGANNLERMGLERMGANSLERMGLERMGANSLERMGPAMGPALGAGIERMGLAMGGGGGASFDRAIEMERGNFGGSFAGSFGGAGGHAPGVARKACQIFVRNLPFDFTWKMLKDKFNECGHVLYADIKMENGKSKGCGVVKFESPEVAERACRMMNGMKLSGREIDVRIDRNA
- binding: binds

More lines, now with the values ahead:

- binding: binds
Molecule: HSP90AB1 (from UniProt P08238 1-724)

- binding: binds
Molecule: FXR1 (from UniProt P51114 1-621)

- binding: binds
B3: NUFIP2 (protein, UniProt Q7Z417 1-695)
chain: MEEKPGQPQPQHHHSHHHPHHHPQQQQQQPHHHHHYYFYNHSHNHHHHHHHQQPHQYLQHGAEGSPKAQPKPLKHEQKHTLQQHQETPKKKTGYGELNGNAGEREISLKNLSSDEATNPISRVLNGNQQVVDTSLKQTVKANTFGKAGIKTKNFIQKNSMDKKNGKSYENKSGENQSVDKSDTIPIPNGVVTNNSGYITNGYMGKGADNDGSGSESGYTTPKKRKARRNSAKGCENLNIVQDKIMQQETSVPTLKQGLETFKPDYSEQKGNRVDGSKPIWKYETGPGGTSRGKPAVGDMLRKSSDSKPGVSSKKFDDRPKGKHASAVASKEDSWTLFKPPPVFPVDNSSAKIVPKISYASKVKENLNKTIQNSSVSPTSSSSSSSSTGETQTQSSSRLSQVPMSALKSVTSANFSNGPVLAGTDGNVYPPGGQPLLTTAANTLTPISSGTDSVLQDMSLTSAAVEQIKTSLFIYPSNMQTMLLSTAQVDLPSQTDQQNLGDIFQNQWGLSFINEPSAGPETVTGKSSEHKVMEVTFQGEYPATLVSQGAEIIPSGTEHPVFPKAYELEKRTSPQVLGSILKSGTTSESGALSLEPSHIGDLQKADTSSQGALVFLSKDYEIESQNPLASPTNTLLGSAKEQRYQRGLERNDSWGSFDLRAAIVYHTKEMESIWNLQKQDPKRIITYNEAMDSPDQ

— paper PMC11290964
